Laboratory results: PubChem BioAssay AID504847 (National Center for Advancing Translational Sciences (NCATS), 2011)
The whole screen tested about 400,000 compounds, of which about 3,700 (0.93%) were called active. The inconclusive results got no clear call from the source; some entries with a clear call stand among them for comparison. The call rests on the fitted dose curve; in most records, active means well fitted inhibition curve with a large enough effect; inconclusive means small, poorly fitted or top-dose-only effect, or another doubt; inactive means no such curve, though single readings can be large or run the other way. Where the call is inconclusive, the potency comes from a doubtful curve fit.

Chains of the proteins cited; added tags and fusions are not shown. Lines headed by an entry give the natural chain unless they say otherwise; changes in a name come on top.
UniProt P11473: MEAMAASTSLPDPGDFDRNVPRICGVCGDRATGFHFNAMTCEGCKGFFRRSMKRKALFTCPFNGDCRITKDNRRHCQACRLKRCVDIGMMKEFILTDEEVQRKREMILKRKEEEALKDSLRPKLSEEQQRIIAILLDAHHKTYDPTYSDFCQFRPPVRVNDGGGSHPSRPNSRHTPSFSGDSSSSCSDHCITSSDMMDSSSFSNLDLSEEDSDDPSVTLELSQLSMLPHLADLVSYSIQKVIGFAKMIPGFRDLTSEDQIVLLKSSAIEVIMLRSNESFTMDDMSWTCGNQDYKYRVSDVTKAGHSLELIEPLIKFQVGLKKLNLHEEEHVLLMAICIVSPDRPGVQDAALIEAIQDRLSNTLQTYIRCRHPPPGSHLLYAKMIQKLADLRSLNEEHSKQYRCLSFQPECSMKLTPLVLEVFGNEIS

The compounds below were run against Vitamin D3 receptor (Homo sapiens) (UniProt P11473) (assay: Inhibitors of the vitamin D receptor (VDR): qHTS). Conditions: VDR-SRC2-3 peptide fluorescence polarization, 2 h; max response, negative = inhibition: hits give low values.
In short: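 VDR–SRC2-3 interaction, FP format. Cmpds 23 nl via pintool, brief spin, 2 h ambient incubation.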
On the % scale 0 is the no-effect control and ±100 the full control effect; potency means the concentration at half of the fitted maximal effect.

Max response, negative = inhibition, inactive:
Cc1cccc(CN2C(=O)c3ccccc3S(=O)(=O)c3ccc(C(=O)N4CCN(c5cc(C)ccc5C)CC4)cc32)c1 -9.81%
O=C(O)c1ccccc1C(=O)NNc1ccc(Cl)cc1Cl -13.7%
O=C(CSc1cn(CC(=O)N2CCCCC2)c2ccccc12)Nc1ccccc1F 6.28%
CCOC(=O)Cc1cc(=O)n2[nH]c(-c3ccccc3)c(-c3ccccc3)c2n1 -1.26%
O=C(COC(=O)c1ccc2c(c1)OCO2)Nc1ncc(Cl)cc1Cl -2.1%
Cc1c(C(=O)NCc2ccc(N(C)C)cc2)oc2c1-c1nn(Cc3cccc(Cl)c3)cc1CC2 10.5%
COc1ccc2oc(C(=O)Nc3ccc(S(=O)(=O)N(C)C4CCN(C)CC4)cc3)c(C)c2c1 0.118%
CCOc1cc(/C=N/NC(=O)CNc2cccc(C)c2)ccc1OC(=O)c1ccccc1 7.89%
COc1ccc(CC(=O)OC(C)C(=O)NCc2ccc3c(c2)OCO3)cc1OC (stereo unspecified) -8.97%
O=C(NCc1ccc(Cl)cc1)c1cccc(NC2=NC3CS(=O)(=O)CC3S2)c1 (stereo unspecified) -2.23%
CCN(C(=O)c1cc2c(=O)n3ccccc3nc2n1CCCOC)C1CCCCC1 12.1%
CCn1ccc(C(=O)Nc2cccc(Cl)c2)n1 -3.21%
C=CCOC(=O)N[C@H](/C(C(=O)OC)=C(\C)NCc1ccccc1)c1ccc(C)cc1 -3.45%
Cc1nc2cnc(OCc3ccccc3)nc2n(Cc2ccc(F)cc2)c1=O 2.73%
CC1C/C(=N/NC(=O)c2ccc(CSc3nc4ccccc4[nH]3)cc2)CC(C)(C)C1 (stereo unspecified) -15.9%
CCN(CC)CCN(C(=O)c1ccco1)c1nc2ccc(Cl)cc2s1 -3.27%

Potency, inconclusive:
Cc1ccc(S(=O)(=O)c2c(N)n(CCC(C)C)c3nc4ccccc4nc23)cc1 89.1 µM [inhibitor, single point]
O=C(CSc1nnc(COc2ccc(Cl)cc2)o1)NC1CC2CCC1C2 (stereo unspecified) 79.4 µM [inhibitor, single point]
Cc1cccc(OCCCN2C(=O)C(=O)c3cc(C)ccc32)c1 56.2 µM [inhibitor, partial curve, poor fit]
COc1cc(NC(=O)CCS(=O)(=O)c2nc(-c3cccs3)cc(C(F)(F)F)n2)cc(OC)c1OC 44.7 µM [inhibitor, partial curve, poor fit]
COc1cc(OC)cc(-c2sc3ccccc3c(=O)c2I)c1 100 µM [inhibitor, partial curve, poor fit]
COc1ccc(NC(=O)c2cc3ccccc3o2)cc1OC 79.4 µM [inhibitor, single point]
COc1ccccc1OCCCC(=O)NC(C)c1ccccc1 (stereo unspecified) 79.4 µM [inhibitor, partial curve, poor fit]
Oc1c(I)cc(Cl)c2cccnc12 44.7 µM [inhibitor, partial curve]
COc1ccc(CNC(=O)OCCN2CCN(Cc3ccccc3)CCC2=O)cc1 89.1 µM [inhibitor, partial curve, poor fit]
CCOc1ccccc1OC(=O)c1cc2ccccc2oc1=O 28.2 µM [inhibitor, single point]
C=C1CCN(C(Cc2ccccc2)C(=O)O)S(=O)(=O)c2ccccc21 (stereo unspecified) 100 µM [inhibitor, single point]
CCOc1ccc2c(c1)C(C)=CC(C)(C)N2C(=O)Nc1ccccc1 39.8 µM [inhibitor, partial curve, poor fit]
CN(C)CCOC(C)(c1ccccc1)c1ccccn1 (stereo unspecified) 70.8 µM [inhibitor, partial curve, poor fit]
Cc1oc(-c2ccc3c(c2)OCCO3)cc1C(=O)NC(Cc1ccccc1)C(=O)O (stereo unspecified) 89.1 µM [inhibitor, single point]
C=CCNC(N)=S 79.4 µM [inhibitor, partial curve, poor fit]
COC(=O)C1CCN(CC(=O)Nc2sc3c(c2C#N)CCC3)CC1 39.8 µM [inhibitor, single point]
Cc1ccc(CN(CC2CCCO2)C(=O)CN2C(=O)C(C(C)C)Oc3ccccc32)o1 (stereo unspecified) 100 µM [inhibitor, single point]
O=C(NNC(=O)c1cc(-c2cccc(Br)c2)nc2ccccc12)c1csc(N2CCOCC2)n1 100 µM [inhibitor, single point]
COc1ccc(NC(=O)CSc2c3c(nc4ccccc24)CCCC3)c(OC)c1 50.1 µM [inhibitor, partial curve, poor fit]
NC1=NC(=Nc2ccc(S(N)(=O)=O)cc2)c2ccccc21 2.24 µM [inhibitor, partial curve, poor fit]
CC(C)c1ccc(/C=C(\c2nc3ccccc3[nH]2)S(=O)(=O)c2ccccc2)cc1 20 µM [inhibitor, full curve]

2 neighbouring records out of the list so far, for reference:
Potency, inconclusive:
COc1cc(NC(=O)CCS(=O)(=O)c2nc(-c3cccs3)cc(C(F)(F)F)n2)cc(OC)c1OC 44.7 µM [inhibitor, partial curve, poor fit]
COc1cc(OC)cc(-c2sc3ccccc3c(=O)c2I)c1 100 µM [inhibitor, partial curve, poor fit]

Next part.

Potency, active:
CCOC(=O)Cc1csc(-n2sc3ccccc3c2=O)n1 15.8 µM
C=CC(C1=CC(=O)C(OC)=CC1=O)c1ccc(OC)cc1 (stereo unspecified) 11.2 µM
CC(=O)Oc1oc(-c2ccccc2)nc1/C=N/c1ccccn1 22.4 µM
NC(=S)NN=C1c2ccccc2-c2c(F)c(F)c(F)c(F)c21 79.4 µM
Cc1cccc(-c2nc3ccccc3c(=O)n2NC(=S)N(C)C)c1 50.1 µM
CCOc1ccccc1NC(=O)c1nc(S(=O)(=O)Cc2ccccc2)ncc1Cl 11.2 µM
Cc1ccc(C)c(-c2ccc(C(=O)O)o2)c1 126 µM
N#C/C(=C/c1ccc(N2CCOCC2)o1)c1ccc(Br)cc1 35.5 µM
Cc1ccc([N+](=O)[O-])cc1N=C1C(=O)Nc2ccccc21 25.1 µM
